Results published in paper PMC9981700 (2023).
Results are given in words; binding and its absence hold for the method and conditions named. In cells and extracts the contact can be indirect. Some binding calls cover weakened binding; strength is not graded here. Tags and fused reporters may be left off the sequences shown.

Chains of the proteins cited; added tags and fusions are not shown. Residues count along the entry.
UniProt Q04721, residues 26-2471: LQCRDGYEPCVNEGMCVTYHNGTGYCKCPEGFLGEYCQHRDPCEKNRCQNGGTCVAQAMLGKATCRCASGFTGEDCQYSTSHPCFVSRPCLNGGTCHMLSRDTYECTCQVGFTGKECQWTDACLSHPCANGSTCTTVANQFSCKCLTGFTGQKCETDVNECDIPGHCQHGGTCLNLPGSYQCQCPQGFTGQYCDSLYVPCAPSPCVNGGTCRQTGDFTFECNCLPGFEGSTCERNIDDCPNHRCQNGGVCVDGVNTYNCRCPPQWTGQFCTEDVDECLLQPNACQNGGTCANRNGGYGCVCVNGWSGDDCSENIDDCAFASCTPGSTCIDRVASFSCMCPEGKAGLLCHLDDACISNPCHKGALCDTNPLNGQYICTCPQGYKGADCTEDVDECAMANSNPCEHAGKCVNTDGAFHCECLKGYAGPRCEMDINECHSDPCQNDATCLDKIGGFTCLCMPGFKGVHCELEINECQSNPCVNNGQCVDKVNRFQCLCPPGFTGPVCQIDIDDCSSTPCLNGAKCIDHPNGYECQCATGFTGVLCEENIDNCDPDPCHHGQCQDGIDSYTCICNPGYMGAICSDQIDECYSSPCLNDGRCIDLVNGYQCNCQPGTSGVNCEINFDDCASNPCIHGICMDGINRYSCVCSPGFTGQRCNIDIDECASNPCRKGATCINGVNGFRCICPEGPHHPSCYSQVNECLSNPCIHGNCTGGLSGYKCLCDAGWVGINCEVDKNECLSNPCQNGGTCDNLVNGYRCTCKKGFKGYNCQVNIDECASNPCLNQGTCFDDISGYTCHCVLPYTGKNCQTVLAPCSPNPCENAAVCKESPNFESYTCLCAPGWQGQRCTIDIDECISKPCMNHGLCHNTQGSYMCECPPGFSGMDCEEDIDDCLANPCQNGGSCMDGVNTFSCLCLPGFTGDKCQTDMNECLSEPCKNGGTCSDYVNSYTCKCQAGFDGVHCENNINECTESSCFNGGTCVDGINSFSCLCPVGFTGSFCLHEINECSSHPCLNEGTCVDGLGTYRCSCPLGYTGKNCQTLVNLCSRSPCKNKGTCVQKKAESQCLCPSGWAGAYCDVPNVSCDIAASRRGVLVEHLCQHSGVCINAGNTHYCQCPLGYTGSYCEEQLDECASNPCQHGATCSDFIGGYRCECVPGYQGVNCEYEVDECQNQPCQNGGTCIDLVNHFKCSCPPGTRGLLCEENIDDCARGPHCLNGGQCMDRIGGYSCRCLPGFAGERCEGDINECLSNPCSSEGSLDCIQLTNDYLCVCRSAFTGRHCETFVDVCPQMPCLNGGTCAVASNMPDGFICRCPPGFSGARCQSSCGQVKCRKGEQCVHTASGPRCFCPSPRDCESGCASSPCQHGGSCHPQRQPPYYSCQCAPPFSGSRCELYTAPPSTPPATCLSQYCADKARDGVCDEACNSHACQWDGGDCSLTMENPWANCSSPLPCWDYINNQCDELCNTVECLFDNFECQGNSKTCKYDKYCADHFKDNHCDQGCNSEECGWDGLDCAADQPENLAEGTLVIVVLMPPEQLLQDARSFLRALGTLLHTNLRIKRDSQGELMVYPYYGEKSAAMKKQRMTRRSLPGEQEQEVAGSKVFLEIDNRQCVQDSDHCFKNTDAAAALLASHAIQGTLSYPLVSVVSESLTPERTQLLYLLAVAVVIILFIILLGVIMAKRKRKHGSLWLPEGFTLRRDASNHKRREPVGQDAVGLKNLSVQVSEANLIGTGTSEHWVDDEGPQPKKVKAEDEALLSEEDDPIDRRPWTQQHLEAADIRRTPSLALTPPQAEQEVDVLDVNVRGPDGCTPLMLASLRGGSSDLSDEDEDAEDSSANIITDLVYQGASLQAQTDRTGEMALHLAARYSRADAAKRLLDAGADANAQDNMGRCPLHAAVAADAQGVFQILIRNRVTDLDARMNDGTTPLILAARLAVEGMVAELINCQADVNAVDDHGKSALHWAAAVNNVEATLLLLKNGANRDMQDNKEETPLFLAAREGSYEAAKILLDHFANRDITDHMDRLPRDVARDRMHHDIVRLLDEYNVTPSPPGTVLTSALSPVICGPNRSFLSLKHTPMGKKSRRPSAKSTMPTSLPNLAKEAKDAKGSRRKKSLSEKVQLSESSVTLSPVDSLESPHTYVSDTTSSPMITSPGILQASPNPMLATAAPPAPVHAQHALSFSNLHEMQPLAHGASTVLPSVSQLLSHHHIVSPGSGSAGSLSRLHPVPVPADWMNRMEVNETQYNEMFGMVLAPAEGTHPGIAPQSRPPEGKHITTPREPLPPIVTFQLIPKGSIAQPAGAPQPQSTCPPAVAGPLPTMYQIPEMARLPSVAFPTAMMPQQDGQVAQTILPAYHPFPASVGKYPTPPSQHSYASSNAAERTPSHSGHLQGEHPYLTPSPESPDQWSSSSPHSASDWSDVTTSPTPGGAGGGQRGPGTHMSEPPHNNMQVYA

Molecular target: Notch2, endogenous in BMSCs (human (endogenous in human BMSCs)) (UniProt Q04721)
Assay: co-IP; lysates of BMSCs transfected with lentivirus encoding 3×Flag-FBLN2; immunoprecipitated with anti-3×Flag antibody, anti-Notch2 antibody or control IgG at 4 °C, rProtein G Sepharose; immunoblotted with anti-Notch2 or anti-3×Flag antibody

B1: Fibulin2 (Ala28–Leu1184), recombinant protein (natural protein)
chain: APRQDCTGVECPPLENCIEEALEPGACCATCVQQGCACEGYQYYDCLQGGFVRGRVPAGQSYFVDFGSTECSCPPGGGKISCQFMLCPELPPNCIEAVVVADSCPQCGQVGCVHAGHKYAAGHTVHLPPCRACHCPDAGGELICYQLPGCHGNFSDAEEGDPERHYEDPYSYDQEVAEVEAATALGGEVQAGAVQAGAGGPPAALGGGSQPLSTIQAPPWPAVLPRPTAAAALGPPAPVQAKARRVTEDSEEEEEEEEEREEMAVTEQLAAGGHRGLDGLPTTAPAGPSLPIQEERAEAGARAEAGARPEENLILDAQATSRSTGPEGVTHAPSLGKAALVPTQAVPGSPRDPVKPSPHNILSTSLPDAAWIPPTREVPRKPQVLPHSHVEEDTDPNSVHSIPRSSPEGSTKDLIETCCAAGQQWAIDNDECLEIPESGTEDNVCRTAQRHCCVSYLQEKSCMAGVLGAKEGETCGAEDNDSCGISLYKQCCDCCGLGLRVRAEGQSCESNPNLGYPCNHVMLSCCEGEEPLIVPEVRRPPEPAAAPRRVSEAEMAGREALSLGTEAELPNSLPGDDQDECLLLPGELCQHLCINTVGSYHCACFPGFSLQDDGRTCRPEGHPPQPEAPQEPALKSEFSQVASNTIPLPLPQPNTCKDNGPCKQVCSTVGGSAICSCFPGYAIMADGVSCEDINECVTDLHTCSRGEHCVNTLGSFHCYKALTCEPGYALKDGECEDVDECAMGTHTCQPGFLCQNTKGSFYCQARQRCMDGFLQDPEGNCVDINECTSLSEPCRPGFSCINTVGSYTCQRNPLICARGYHASDDGTKCVDVNECETGVHRCGEGQVCHNLPGSYRCDCKAGFQRDAFGRGCIDVNECWASPGRLCQHTCENTLGSYRCSCASGFLLAADGKRCEDVNECEAQRCSQECANIYGSYQCYCRQGYQLAEDGHTCTDIDECAQGAGILCTFRCLNVPGSYQCACPEQGYTMTANGRSCKDVDECALGTHNCSEAETCHNIQGSFRCLRFECPPNYVQVSKTKCERTTCHDFLECQNSPARITHYQLNFQTGLLVPAHIFRIGPAPAFTGDTIALNIIKGNEEGYFGTRRLNAYTGVVYLQRAVLEPRDFALDVEMKLWRQGSVTTFLAKMHIFFTTFAL
With B1 as the binder, how does the binding read?
Its binding is “binds”.
